Values of other authors as cited in patent US20070123584A1, “METHOD OF TREATING PREMENSTRUAL DYSPHORIC DISORDER WITH ESCITALOPRAM” (H. Lundbeck A/S, priority 2003, published 2007).
At least one compound was matched to its structure with a doubt left.

Tested on: premenstrual dysphoric disorder (PMDD)
Conditions: administered to women according to certain regimens in a clinical trial; J Clin Psychopharmacol 1998, 18(5):390-398

CN(C)CCCC1(c2ccc(F)cc2)OCc2cc(C#N)ccc21 (racemic) [citalopram]
treatment of PMDD: effective treatment for PMDD
